From patent US20190382454A1, “A MODIFIED PEPTIDE AS AN ANTICANCER AGENT” (Amrita Therapeutics Limited, priority 2015, published 2019)
Results are given in words; binding and its absence hold for the method and conditions named. Some binding calls cover weakened binding; strength is not graded here.

Molecular target: T1, Scaffold Matrix Attachment Region Binding Protein 1 (SMAR1), full length (UniProt Q8N9N5)
T1 sequence: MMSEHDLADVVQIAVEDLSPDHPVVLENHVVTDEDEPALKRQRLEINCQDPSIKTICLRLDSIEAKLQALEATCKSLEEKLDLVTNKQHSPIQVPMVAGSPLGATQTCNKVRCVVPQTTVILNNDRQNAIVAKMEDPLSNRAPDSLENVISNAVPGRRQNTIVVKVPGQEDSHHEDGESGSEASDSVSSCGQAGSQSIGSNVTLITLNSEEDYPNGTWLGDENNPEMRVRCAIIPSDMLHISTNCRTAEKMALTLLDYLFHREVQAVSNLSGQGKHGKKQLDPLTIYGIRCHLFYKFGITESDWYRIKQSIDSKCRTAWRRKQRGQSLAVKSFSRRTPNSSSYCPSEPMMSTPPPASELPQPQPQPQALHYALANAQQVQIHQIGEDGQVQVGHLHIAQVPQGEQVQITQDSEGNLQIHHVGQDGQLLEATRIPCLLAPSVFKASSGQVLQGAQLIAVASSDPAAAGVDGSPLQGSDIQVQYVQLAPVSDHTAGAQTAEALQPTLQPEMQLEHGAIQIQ
Assay: ITC, 25 C

B1: AT-01C (peptide)
peptide: ATATVNAIRGSVTPAVSQFN
In the case of B1, the binding is reported as “binds”.

B2: AT-01D (peptide)
peptide: NAIRGSVTPAVSQFN
In the case of B2, the binding is reported as “binds”.
